In article PMC9656839:
These are yes or no findings as the source states them, for the method shown. For some assays here: In cells and extracts the contact can be indirect. Some binding calls cover weakened binding; strength is not graded here.

Amino acid sequences for entries named in this document (tags omitted). A change or cut given only in a name is not applied to a line headed by its entry.
UniProt P63101: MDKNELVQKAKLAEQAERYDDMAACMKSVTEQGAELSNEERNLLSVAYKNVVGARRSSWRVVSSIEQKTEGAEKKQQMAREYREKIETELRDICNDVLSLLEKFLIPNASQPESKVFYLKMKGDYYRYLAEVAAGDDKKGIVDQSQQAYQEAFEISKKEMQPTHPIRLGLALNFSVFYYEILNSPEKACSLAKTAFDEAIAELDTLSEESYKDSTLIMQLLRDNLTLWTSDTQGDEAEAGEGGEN

Assays:
[1] = target: T1, PGAM2 (endogenous in KLN-205 cells) (mouse (endogenous in KLN-205)) (UniProt O70250); assay: proximity ligation; DuoLink In Situ Orange kit in KLN-205 cells under standard (control) culture conditions; rabbit anti-PGAM2 with mouse anti-14-3-3ζ/δ or mouse anti-RPLP0; signal measured from the nuclei (DAPI)
T1 sequence: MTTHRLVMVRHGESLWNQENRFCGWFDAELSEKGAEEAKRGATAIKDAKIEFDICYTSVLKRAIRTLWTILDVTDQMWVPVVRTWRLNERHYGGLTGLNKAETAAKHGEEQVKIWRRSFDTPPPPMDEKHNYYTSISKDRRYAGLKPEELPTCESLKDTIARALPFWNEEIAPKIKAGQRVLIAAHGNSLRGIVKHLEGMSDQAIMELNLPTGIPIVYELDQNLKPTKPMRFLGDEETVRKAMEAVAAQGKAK

[2] = target: rabbit muscle phosphoglycerate mutase PGAM2 (rabbit) (UniProt G1U7S4); assay: crystal structure; rabbit muscle PGAM2, space group P41212, one chain in the asymmetric unit, dimer by the crystallographic twofold axis; 0.1 M HEPES-NaOH pH 7.0, 0.2 M NaCl, 20% PEG6000, 292 K; both purified

binding [1] | binding [2] | Molecule
binds |  | 14-3-3ζ/δ (from UniProt P63101 1-245)
 | binds | rabbit muscle phosphoglycerate mutase PGAM2 (enzyme, UniProt G1U7S4 1-253) MATHRLVMVRHGESTWNQENRFCGWFDAELSEKGAEEAKRGAVAIKDAKMEFDICYTSVLKRAIRTLWTILDGTDQMWLPVVRTWRLNERHYGGLTGLNKAETAAKHGEEQVKIWRRSFDIPPPPMDEKHPYYTSISKERRYAGLKPGELPTCESLKDTIARALPFWNEEIAPQIKAGKRVLIAAHGNSLRGIVKHLEGMSDQAIMELNLPTGIPIVYELDQALKPTKPMRFLGDEETVRKAMEAVAAQGKAK
